“And” between values parts separate entries of the source, which are not always exact repeats. Equal entries are not always repeated. In all, about 320,000 compounds went through this assay and about 480 (0.15%) were called active. Inconclusive results, whose numbers are uncertain, are shown with a selection of clear calls. No stated cut-off is given here; in the data, active means inhibition above about 26% (passing the limit was not always enough); inconclusive means no clear call, values can overlap the other calls.
molecular target: Histone deacetylase 3 (Homo sapiens) (UniProt O15379); experiment: HDAC3 deacetylase inhibitors, primary screen, biochemical, fluorescence, cell-free homogeneous (AID 2718); conditions: recombinant HDAC3, fluorogenic peptide/trypsin coupled, at 8.3 µM, active compounds read high

Sequences of proteins named here, by UniProt entry; tags and fusion partners are left off.
UniProt O15379, whole entry, looked up: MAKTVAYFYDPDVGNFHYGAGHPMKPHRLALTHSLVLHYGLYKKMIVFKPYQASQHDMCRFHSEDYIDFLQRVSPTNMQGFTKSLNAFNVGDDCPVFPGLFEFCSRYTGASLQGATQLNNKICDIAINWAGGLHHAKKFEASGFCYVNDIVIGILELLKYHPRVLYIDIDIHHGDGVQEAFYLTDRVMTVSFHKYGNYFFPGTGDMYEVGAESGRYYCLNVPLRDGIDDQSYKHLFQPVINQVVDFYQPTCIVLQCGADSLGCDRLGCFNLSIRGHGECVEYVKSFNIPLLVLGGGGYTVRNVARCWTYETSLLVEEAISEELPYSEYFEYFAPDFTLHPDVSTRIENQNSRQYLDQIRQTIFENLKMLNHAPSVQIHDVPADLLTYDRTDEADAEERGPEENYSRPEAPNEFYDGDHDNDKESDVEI

Structure (SMILES) | inhibition
O=C(c1cc(F)ccc1F)C1CCCN(C(=O)CCc2cnccn2)C1 (centres undefined) | inconclusive: 11.8%
C=CCC[C@@H](Cc1ccc(F)cc1)C(=O)OC[C@@H]1CCCN1C(=O)[C@@H](CC=C)CC(=O)N(CCO)Cc1ccccc1 | active: 28.2%
O=C(O)CCCn1ccc2cc(S(=O)(=O)N3CCCC3)ccc21 | inconclusive: 20.9%
COc1ccc(Nc2nc(N)nc(CSc3nnc(N)s3)n2)cc1 | inactive: -1.61%
O=C(Nc1ccc(Cl)cc1)Nc1nnc(SCc2ccc(Cl)cc2)s1 | inactive: -1.06%
CC(=O)c1ccc(OCC(O)CN2CCC(C)CC2)cc1 (centres undefined) | inactive: -1.11%
CCn1c(COc2cccc3ccccc23)nnc1SCC(N)=O | inconclusive: 14.7%
C/C(=N\NC(=O)c1ccc(N2CCCC2=O)cc1)c1ccccc1 | inactive: 7.86%
COc1cc(C(=O)NNC(=O)c2ccc(NC(C)=O)cc2)cc(OC)c1OC | inconclusive: 24.1%
COc1ccc(C(=O)n2cc(C(C)=O)c3ccccc32)cc1 | inconclusive: 19.1%
CCN1C(=O)[C@@H]2[C@@H](c3ccc(-c4ccc(F)cc4)c(OC)c3)N3CCCC[C@@]3(C(=O)OC)[C@@H]2C1=O | inconclusive: 24.8%
CC(C)(C)NC(=O)CSc1nnc(NC(=O)c2ccccc2Cl)s1 | inconclusive: 14.4%
CC(C)Cn1c(-c2ccc(Cl)cc2)cnc1SCC(=O)N1CCOCC1 | inconclusive: 22.9%
C#CCn1c(O)c(N=NC(=O)CNC(=O)c2cccnc2)c2ccccc21 | inactive: 8.61%
O=C(CNS(=O)(=O)c1ccc(Cl)cc1)NC1CCCCC1 | inactive: -1.97%
CCC(=O)N1CCc2cc(S(=O)(=O)NCCC(=O)NCc3ccccc3Cl)ccc21 | inconclusive: 16.5%
CC1CCN(c2ccc3nnc(CCC(=O)NC(C)C)n3n2)CC1 | inactive: -1.63%
COc1ccc(CN2CCNC(=O)C2CC(=O)NC2CCCCCCC2)cc1C (centres undefined) | inconclusive: 20.9%
O=C(NCC1CCCO1)C(=O)c1c[nH]c2ccccc12 (centres undefined) | inconclusive: 19.5%
COc1cc(-c2n[nH]c(=S)n2/N=C/c2cccn2C)cc(OC)c1OC | inconclusive: 21.3%
COc1c(C(O)CC(C)C)ccc2c1C(=O)OCc1cc(C)cc(O)c1O2 (centres undefined) | inconclusive: 21.9%
Cc1cccnc1Nc1nc(-c2ccc(O)c(O)c2)cs1 | inactive: 2.5%
CCOC(=O)CSc1nnc(CNC(=O)c2ccc(OC)cc2OC)n1C | inconclusive: 19.4%

Structure (SMILES) | inhibition
O=C(Cn1nnc(-c2ccc(F)cc2)n1)OCC(=O)c1ccccc1 | inconclusive: 8.11%
CS(=O)(=O)N(Cc1ccccc1)c1ccc(C(=O)Nc2ccccc2Sc2ccccc2)cc1 | inactive: 9.87%
CCSc1nc(O)cc(=O)[nH]1 | inactive: -1.86%
Cc1ccc(S(=O)(=O)N2CCC(C(=O)OCC(=O)Nc3cc(S(C)(=O)=O)ccc3Cl)CC2)cc1C | inconclusive: 16.8%
CCOc1ccc(N2CC(C(=O)Nc3cc(Cl)ccc3-n3cncn3)CC2=O)cc1 (centres undefined) | inconclusive: 17.8%
CC(C)(C)c1ccc(OCCCn2ccnc2)cc1 | inconclusive: 28.4%
CC(=O)c1c(OC(=O)c2ccc(C)cc2)c2ccccc2n1C | inactive: 10.9%
Nc1ccc(C2(c3ccc(N)cc3)OC(=O)c3ccccc32)cc1 | inactive: 2.31%
Cc1c(C(=O)Oc2cccc3ccccc23)cnn1-c1ccccc1 | inactive: 11.3%
CCOc1ccc(C(=O)Nc2cccc(SC)c2)cc1 | inconclusive: 17.8%
CCOC(=O)c1c(C)[nH]c(C(=O)COC(=O)c2cnccn2)c1C | inactive: -2.37%
CC(=O)Nc1cccc(NS(=O)(=O)c2cc3c4c(c2)CCN4C(=O)CC3)c1 | inconclusive: 16.6%
CCn1c(CSc2ncccn2)nnc1SCC(=O)N1CCc2ccccc21 | inconclusive: 32.7%
COc1ccc(Oc2c(-c3ccc(O)cc3O)n[nH]c2C)cc1 | inactive: -0.0296%
COCCCNC(=O)/C(C#N)=C/c1ccc(OCC(=O)O)c(OC)c1 | inconclusive: 16.2%
CCCn1c(SCC(N)=O)nnc1C(C)C | inconclusive: 15.2%
CC(=O)OCC(=O)Nc1ccccc1OC(F)F | inconclusive: 19.4%
CCOC(=O)C1CCN(C(=O)c2ccc(NS(=O)(=O)c3ccc(F)cc3C)cc2)CC1 | inconclusive: 13.6%
O=C(Nc1nnc(-c2ccco2)o1)c1cccc(Cl)c1 | inactive: -1.44%
C[n+]1cccc2ccc3c(c21)OC(N)=C(C#N)C3c1ccccc1 (centres undefined) | inconclusive: 15.8%
Cc1cccc(CN2[C@@H](CC(C)C)COCCS2(=O)=O)c1 | inactive: 5.48%
Cc1ccc(S(=O)(=O)Nc2ccc(C(OC(=O)c3ccccc3[N+](=O)[O-])(C(F)(F)F)C(F)(F)F)cc2)cc1 | active: 31.1%
C=CCOc1ccc(/C=C2\N=C(C)OC2=O)cc1OC | inconclusive: 32.3%

Entries shown so far containing a cyano group (two):
Structure (SMILES) | inhibition
COCCCNC(=O)/C(C#N)=C/c1ccc(OCC(=O)O)c(OC)c1 | inconclusive: 16.2%
C[n+]1cccc2ccc3c(c21)OC(N)=C(C#N)C3c1ccccc1 (centres undefined) | inconclusive: 15.8%

(continued)

Structure (SMILES) | inhibition
C[C@@H](NC(=O)c1coc(=O)c(Br)c1)c1ccccc1 | inactive: 6.56%
CC1CCC(C(C)C)C(OC(=O)Cn2c(-c3ccc(Br)cc3)[n+](C)c3ccccc32)C1 (centres undefined) | inactive: 4.53% and inactive: 6.81%
O=C(O)c1ccc(/C=N/NC(=S)NCCN2CCOCC2)cc1 | inconclusive: 24.9%
CCOC(=O)N1CCC(NC(=O)C(NS(=O)(=O)c2ccc3c(c2)CCN3C(=O)CC)C(C)C)CC1 (centres undefined) | inconclusive: 11.7%
CCc1nnc(NS(=O)(=O)c2ccc(NC(=S)NC(=O)/C=C/c3ccc(OC)cc3)cc2)s1 | inactive: -7.93%
Cc1c(OCC(=O)NCC2CCC(C(=O)NCCCO)CC2)ccc2c(-c3ccccc3)cc(=O)oc12 (centres undefined) | inconclusive: 15.6%
Cn1c(=O)c2c(nc(NN=C3CCCCC3)n2C)n(C)c1=O | inconclusive: 16.9%
O=C1C2=C(SCCS2)C(=O)N1CCCO | inconclusive: 10.2%
CCOC(=O)c1ccc(N2Cc3ccccc3C2=N)cc1 | inconclusive: 10.4%
COc1ccc(-c2nn(-c3ccccc3)cc2/C=N/NC(=S)NC(C)C)cc1OC | inconclusive: 5.9%
c1cnc2c(Oc3ncnc4sccc34)cccc2c1 | inconclusive: 17.5%
CCOC(=O)N1CCC(NC(=O)c2cc(COc3c(C)cccc3C)on2)CC1 | inconclusive: 15.5%
COc1ccc(-c2nn(-c3ccccc3)cc2CNCc2cccnc2)c(F)c1 | inconclusive: 14%
Cc1ccc(-c2onc3ccc(C=O)cc23)cc1 | inactive: -1.51%
O=C(c1cc(-c2ccc(O)cc2)on1)N1CCCC1 | inactive: 1.72%
O=C1c2ccccc2C(=O)N1OS(=O)(=O)c1ccccc1 | active: 44.3%
CCOC(=O)c1ccccc1NC(=O)Cc1ccc(S(=O)(=O)N2CCCC2)s1 | inactive: 2.59%
Cc1ccc(C(=O)CSc2cc(C)[nH]c(=O)n2)cc1 | active: 34.3%
CN(CC(=O)Nc1ccc(Cl)c(C(F)(F)F)c1)C(=O)c1cc(-c2ccncc2)nc2ccccc12 | inconclusive: 23.7%
N#Cc1cc([N+](=O)[O-])ccc1NC(=O)COC(=O)CN1C(=O)C2CCCCC2C1=O (centres undefined) | inactive: -7.3%
Cc1nc2ccccc2c(=O)n1/N=C/c1ccco1 | inactive: 6.69%
CCCCCCC1(C)NC(=S)N(c2ccccc2)N1 (centres undefined) | inconclusive: 32%
Cc1onc(-c2ccccc2)c1C(=O)n1cc(Br)cn1 | inconclusive: 25.5%

Reprinted at random: 2 entries already listed.
Structure (SMILES) | inhibition
C[C@@H](NC(=O)c1coc(=O)c(Br)c1)c1ccccc1 | inactive: 6.56%
COc1ccc(-c2nn(-c3ccccc3)cc2/C=N/NC(=S)NC(C)C)cc1OC | inconclusive: 5.9%

Additional compounds follow:

Structure (SMILES) | inhibition
CC1(C)CC(=O)c2cc(OCC(=O)O)ccc2O1 | inconclusive: 17.4%
Cc1cccc(-n2cc(CN(C)Cc3nccn3C)c(-c3cccc(F)c3)n2)c1 | inconclusive: 27.1%
N#Cc1c(-c2cccnc2)c2c([nH]c1=S)CCCC2 | inconclusive: 16.8%
CC(=O)Oc1oc(-c2ccccc2)nc1C=Nc1ccccc1 | inconclusive: 47.5%
COc1ccc(NC(=S)NNC(=O)COc2ccc(Cl)cc2Cl)cc1 | inconclusive: 19.9%
CCC(CC)C1=NN2C(=N)/C(=C/c3ccc(OC(=O)c4ccco4)cc3)C(=O)N=C2S1 | active: 31.8%
O=C(CCNC(=O)c1ccccc1)NNC(=O)COc1ccccc1Cl | inactive: -3.11%
Cc1cc(C)n(-c2nc3c(c(=O)[nH]c(=O)n3C)n2C)n1 | inconclusive: 19.5%
COCCOc1ccc(C(F)(F)F)cc1NC(=O)c1ccccc1F | inactive: -4.53%
COc1ccc(OC)c(NC(=O)CN(Cc2ccc(F)cc2)C2CCCCC2)c1 | inconclusive: 23.6%
COc1cc(OC)c(C2CC(=O)N3CN(c4ccccc4)CSC3=C2C#N)cc1OC (centres undefined) | active: 41.9%
COc1ccc(Cl)cc1C(=O)Nc1cccc(-c2ccc3nncn3n2)c1 | inactive: 4.85%
O=C(C1=C[C@@H](c2ccc(C(F)(F)F)cc2)C[C@@H](OCCCCO)O1)N1CCN(Cc2ccccc2)CC1 | inconclusive: 24.1%
COc1ccccc1CN=C1Nc2ccccc2CS1 | inconclusive: 23.3%
O=C(Nc1ccc(S(=O)(=O)NC2CCCC2)cc1)c1cnccn1 | inconclusive: 20.8%
Cc1cc(C(=O)OCC(=O)NC2CCCCC2C)c2ccccc2n1 (centres undefined) | inconclusive: 25%
C[C@@H]1CN=C2N(CCNC(=O)CCC3CCCCC3)[C@H](Cc3ccc(O)cc3)CN21 | inconclusive: 18.6%
CC(=O)c1ccc(NC(=O)COC(=O)c2ccccc2N=Nc2ccc(N(C)C)cc2)cc1 | inactive: 2.18%
CN1c2ccsc2/C(=N/Nc2ccccc2)CS1(=O)=O | inactive: -1.84%
COc1cccc(C2Nc3ccccc3C(=O)N2O)c1O (centres undefined) | inactive: 7.88%

Source: PubChem BioAssay AID2718 (Broad Institute, 2010)
